In patent US20260216134A1, “CHARGED PI-CONJUGATED MOLECULES FOR THE TREATMENT OF MICROBIAL INFECTIONS” (priority 2023, published 2026):
At least one structure is not confirmed: it was looked up by name or label, or the drawing left a doubt. Some results were stated once for a whole list of compounds, not compound by compound.

Key:
S. aureus ATCC 25923 = experiment: Single-step isolation of spontaneous resistant mutants; type: cell-based, Staphylococcus aureus; details: plates containing 4×, 8×, 16×MIC; resistant CFU / total CFU
Text: FIGS. 10A-10C show the development of resistance and mutation rate of bacterial strains subjected to repeated exposure to charged pi-conjugated compounds. (FIG. 10A) Stepwise development of resistance in B. cereus CECT131123, E. faecalis ATCC 29212, S. aureus ATCC 25923, and S. pneumoniae ATCC 49619. Bacterial strains were repeatedly exposed to charged pi-conjugated compounds or the conventional antibiotics ciprofloxacin (CIP), linezolid (LNZ) and vancomycin (VAN) for over 30 cycles. The y-axis indicates the MIC fold change, reflecting increased resistance over repeated treatment. (FIG. 10B) Mutation rate, represented as the frequency of rifampin-resistant cells, in S. aureus ATCC 25923 subjected to repeated cycles of treatment with charged pi-conjugated compounds or the conventional antibiotic ciprofloxacin (CIP). (FIG. 10C) Single-step resistance assessment of spontaneous mutants. Overnight cultures of S. aureus ATCC 25923 were plated on media containing increasing concentrations of charged pi-conjugated compounds (4×, 8×, or 16×MIC).
For the single-step isolation of resistant mutants, overnight cultures of different bacterial strains (~10^10 CFU mL^−1) were plated on LB agar containing 4×, 8×, and 16×MIC of charged pi-conjugated compounds Cy5.5 amine, BL 248, BL 273, Cy7.5 amine, and GL 356-2. The spontaneous mutation rate ranged from ≤10^−6 for plates containing Cy7.5 amine to <10^−9 for the remaining molecules (FIG. 10C). Spontaneous mutants resistant to Cy7.5 amine could be isolated from overnight cultures. […] This could be attributed to several reasons. […]
To estimate the occurrence of spontaneous charged pi-conjugated compound-resistant mutants, S. aureus cells cultured overnight were resuspended in PBS to yield 10^10 cells mL^−1 and then plated on both selective (charged pi-conjugated compound-containing) and non-selective LB agar plates. After incubation at 37° C. for 24-48 hours, colonies were counted, and the frequency of charged pi-conjugated compound-resistant mutants was calculated. […]

S. aureus = experiment: RNA sequencing after sublethal treatment; type: cell-based, Staphylococcus aureus; details: sublethal concentration (0.5×MIC), 8 h

Row | SMILES | spontaneous mutation rate (S. aureus ATCC 25923) | transcriptional response (RNA-seq) (S. aureus)
1 | CN(C)C(=O)CN1c2ccc3ccccc3c2C(C)(C)C1/C=C/C1=CC(=C/C=C2/N(C)c3ccc4ccccc4c3C2(C)C)/CCC1.I (stereo not shown) [BL 248] | < 10^−9 | distinct transcriptional responses
2 | C[N+]1=C(/C=C/C=C/C=C2/N(CCCCCC(=O)NCCCCCCN)c3ccc4ccccc4c3C2(C)C)C(C)(C)c2c1ccc1ccccc21.Cl.[Cl-] [Cy5.5-amine] | < 10^−9 | 
3 | CN(C)C(=O)CN1/C(=C/C=C2C=C(/C=C/C3=[N+](CC(=O)N(C)C)c4ccc5ccccc5c4C3(C)C)CCC/2)C(C)(C)c2c1ccc1ccccc21.[Br-] [BL 273, 3-(2-(dimethylamino)-2-oxoethyl)-2-((E)-2-((E)-3-((E)-2-(3-(2-(dimethylamino)-2-oxoethyl)-1,1-dimethyl-1,3-dihydro-2H-benzo[e]indol-2-ylidene)ethylidene)cyclohex-1-en-1-yl)vinyl)-1,1-dimethyl-1H-benzo[e]indol-3-ium] | < 10^−9 | 
